Data as given in PubChem BioAssay AID686938 (Drosophila RNAi Screening Center, 2013)
The screen tested about 23,000 reagents; this is a random part of those with a known target gene and a result. Over the whole deposit, 75 (0.33%) were called active. 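Raw plate signals without normalisation; calls rest on plate z-scores that were not deposited; ratio present for only 364 wells.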 Reagents against one gene are numbered here. A plus sign joins genes that one reagent is predicted to hit. The record does not give: the dose of the treatment.

Purpose: 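Knock-downs reducing store-operated calcium influx in Drosophila cells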 (primary screen)
System: Drosophila S2R+ cells
Knock-down reagent: long dsRNA against Drosophila genes, about 0.25 µg dsRNA per well, roughly 10,000 cells
Time to read-out: 5 days of knock-down before the calcium assay
Challenge: thapsigargin (SERCA pump blocker) to empty calcium stores; entry signal taken 4 min after adding it
Detection: 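Duplicate raw fluo-4 intensities per well from a plate reader, at rest and four minutes after thapsigargin emptied calcium stores; entry-to-rest ratio filled for only some wells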
Direction: calcium entry signal: higher = stronger calcium signal after store depletion; entry to resting ratio: higher = more calcium entry relative to resting level; resting calcium signal: higher = higher resting calcium signal
Active means: 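Hit if the duplicate-averaged plate z-score for entry over resting signal is under −3; wells with weak total dye signal (Fmax z < −2) or more than 5 off-targets removed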
Meaning of the calls: active = strongly reduced calcium entry; inactive = no strong reduction

| gene | reagent | calcium entry signal, replicate 1 (fluorescence units) | calcium entry signal, replicate 2 (fluorescence units) | entry to resting ratio | resting calcium signal, replicate 1 (fluorescence units) | resting calcium signal, replicate 2 (fluorescence units) | outcome |
| --- | --- | --- | --- | --- | --- | --- | --- |
| CG30122 | 1 | 4.38e7 | 3.76e7 | – | 2.18e7 | 1.81e7 | inactive |
| CG30122 | 2 | 5.12e7 | 5.56e7 | – | 2.43e7 | 2.62e7 | inactive |
| CG6693 | 1 | 4.38e7 | 4.58e7 | – | 1.81e7 | 1.89e7 | inactive |
| Rnp4F (RNA-binding protein 4F) | 1 | 2.28e7 | 2.64e7 | – | 1.21e7 | 1.22e7 | inactive |
| CG18135 | 1 | 4.31e7 | 5.16e7 | – | 2.09e7 | 3.25e7 | inactive |
| CG6356 | 1 | 3.64e7 | 5.93e7 | – | 1.94e7 | 2.53e7 | inactive |
| RhoGAP71E (Rho GTPase activating protein at 71E) | 1 | 4.90e7 | 5.73e7 | – | 1.97e7 | 3.72e7 | inactive |
| RhoGAP71E (Rho GTPase activating protein at 71E) | 2 | 3.45e7 | 2.92e7 | – | 1.50e7 | 1.26e7 | inactive |
| RhoGAP71E (Rho GTPase activating protein at 71E) | 3 | 3.40e7 | 3.78e7 | – | 1.59e7 | 1.45e7 | inactive |
| EMC7 (ER membrane protein complex subunit 7) | 1 | 5.11e7 | 4.24e7 | – | 1.77e7 | 1.97e7 | inactive |
| CG18278 + CG30059 | 1 | 2.50e7 | 4.19e7 | – | 1.28e7 | 1.87e7 | inactive |
| CG42834 | 1 | 4.17e7 | 2.28e7 | – | 1.90e7 | 1.18e7 | inactive |
| TBC1D5 (TBC1 domain family member 5) | 1 | 4.49e7 | 5.24e7 | – | 1.82e7 | 2.10e7 | inactive |
| POLDIP2 (Polymerase (DNA-directed), delta interacting protein 2) | 1 | 2.48e7 | 3.32e7 | – | 1.08e7 | 1.43e7 | inactive |
| SCOT (Succinyl-CoA:3-ketoacid CoA transferase) | 1 | 3.69e7 | 3.32e7 | – | 1.73e7 | 1.80e7 | inactive |
| Gr59e (Gustatory receptor 59e) | 1 | 3.53e7 | 4.26e7 | – | 1.80e7 | 1.92e7 | inactive |
| PIG-Wb (Phosphatidylinositol glycan anchor biosynthesis class W b) | 1 | 3.72e7 | 4.23e7 | – | 1.95e7 | 1.90e7 | inactive |
| ND-24 (NADH dehydrogenase (ubiquinone) 24 kDa subunit) | 1 | 4.18e7 | 4.43e7 | – | 1.85e7 | 2.01e7 | inactive |
| U2A | 1 | 3.03e7 | 4.42e7 | – | 1.65e7 | 1.89e7 | inactive |
| CG14440 | 1 | 3.36e7 | 4.94e7 | – | 1.72e7 | 2.37e7 | inactive |
| CG14440 | 2 | 4.69e7 | 3.02e7 | – | 2.30e7 | 1.45e7 | inactive |
| CG14440 | 3 | 4.80e7 | 3.77e7 | – | 2.39e7 | 1.71e7 | inactive |
| CG14483 | 1 | 4.99e7 | 6.75e7 | – | 2.08e7 | 2.99e7 | inactive |
| CG14269 | 1 | 3.68e7 | 7.05e7 | 2.1 | 1.76e7 | 3.03e7 | inactive |
| CG13690 | 1 | 3.78e7 | 4.26e7 | – | 1.81e7 | 1.72e7 | inactive |
| MFS12 (Major Facilitator Superfamily Transporter 12) | 1 | 3.17e7 | 2.85e7 | – | 1.36e7 | 1.38e7 | inactive |
| CLIP-190 (Cytoplasmic linker protein 190) | 1 | 3.73e7 | – | – | 1.92e7 | – | inactive |
| CG15468 | 1 | 3.77e7 | 4.11e7 | – | 1.84e7 | 1.85e7 | inactive |
| CG15027 | 1 | 3.97e7 | 2.15e7 | – | 2.00e7 | 1.11e7 | inactive |
| CG32301 | 1 | 3.25e7 | 4.14e7 | – | 1.71e7 | 1.88e7 | inactive |
| hdly (hadley) | 1 | 3.50e7 | 4.36e7 | – | 5.91e7 | 1.80e7 | inactive |
| CG15145 | 1 | 4.57e7 | 3.37e7 | – | 2.06e7 | 1.66e7 | inactive |
| Adck1 (aarF domain containing kinase 1) | 1 | 4.40e7 | – | – | 2.13e7 | – | inactive |
| CG3662 | 1 | 3.99e7 | – | – | 2.38e7 | – | inactive |
| CG15564 | 1 | 4.08e7 | 5.29e7 | – | 2.00e7 | 2.34e7 | inactive |
| CG6051 | 1 | 4.06e7 | 4.89e7 | – | 2.07e7 | 2.25e7 | inactive |
| oxt (peptide O-xylosyltransferase) | 1 | 4.60e7 | 3.95e7 | – | 2.13e7 | 2.00e7 | inactive |
| CG7457 | 1 | 3.29e7 | 4.18e7 | – | 1.58e7 | 1.79e7 | inactive |
| Tim17b1 | 1 | 3.61e7 | 3.38e7 | – | 1.93e7 | 1.72e7 | inactive |
| Ttc1 (Tetratricopeptide repeat domain 1) | 1 | 3.44e7 | 7.70e7 | – | 1.67e7 | 6.23e7 | inactive |
| Ttc1 (Tetratricopeptide repeat domain 1) | 2 | 3.45e7 | 3.17e7 | – | 1.87e7 | 1.45e7 | inactive |
| CG13048 | 1 | 3.22e7 | 5.93e7 | – | 1.80e7 | 2.22e7 | inactive |
| CG42582 (retired record) | 1 | 2.95e7 | 3.18e7 | – | 1.54e7 | 1.48e7 | inactive |
| TfIIEbeta (Transcription factor IIEbeta) | 1 | 2.38e7 | 1.95e7 | – | 1.49e7 | 1.13e7 | inactive |
| CG13309 | 1 | 3.03e7 | 4.60e7 | – | 1.44e7 | 2.04e7 | inactive |
| Fer2LCH (Ferritin 2 light chain homologue) | 1 | 3.11e7 | 4.96e7 | – | 1.62e7 | 2.07e7 | inactive |
| Vha100-5 (Vacuolar H[+] ATPase 100kD subunit 5) | 1 | 4.52e7 | 5.29e7 | – | 2.19e7 | 2.27e7 | inactive |
| Prx1 (Peroxiredoxin 1) | 1 | 3.32e7 | 5.02e7 | – | 1.82e7 | 1.91e7 | inactive |
| Nhe2 (Na[+]/H[+] hydrogen exchanger 2) | 1 | 4.38e7 | 4.76e7 | – | 2.04e7 | 2.02e7 | inactive |
| Nhe2 (Na[+]/H[+] hydrogen exchanger 2) | 2 | 4.40e7 | 4.58e7 | – | 2.16e7 | 1.98e7 | inactive |
| SmydA-9 (SET and MYND domain containing, arthropod-specific, member 9) | 1 | 3.18e7 | 5.46e7 | – | 1.68e7 | 2.41e7 | inactive |
| Fmo-2 (Flavin-containing monooxygenase 2) | 1 | 5.28e7 | – | – | 2.55e7 | – | inactive |
| EndoU (Endoribonuclease U-specific) | 1 | 1.91e7 | 2.29e7 | – | 8.78e6 | 1.01e7 | inactive |
| CG7728 | 1 | 2.28e7 | 3.46e7 | – | 1.24e7 | 2.58e7 | inactive |
| CG14598 | 1 | 3.12e7 | 2.38e7 | – | 1.45e7 | 1.14e7 | inactive |
| PIG-X (Phosphatidylinositol glycan anchor biosynthesis class X) | 1 | 3.08e7 | 2.86e7 | – | 1.77e7 | 1.30e7 | inactive |
| CG14459 | 1 | 2.12e7 | 3.78e7 | – | 1.50e7 | 2.04e7 | inactive |
| CG14459 | 2 | 3.15e7 | 3.72e7 | – | 1.54e7 | 1.62e7 | inactive |
| alph (alphabet) | 1 | 3.50e7 | 3.89e7 | – | 1.68e7 | 1.90e7 | inactive |
| Prestin | 1 | 4.14e7 | 8.06e7 | – | 2.18e7 | 3.41e7 | inactive |
| CG8299 | 1 | 3.40e7 | 3.26e7 | – | 1.47e7 | 1.60e7 | inactive |
| CG31821 | 1 | 2.81e7 | 4.44e7 | – | 1.37e7 | 2.29e7 | inactive |
| CG14082 | 1 | 2.25e7 | 4.05e7 | – | 1.09e7 | 1.88e7 | inactive |
| AP-2mu (Adaptor Protein complex 2, mu subunit) | 1 | 7.54e7 | 2.72e7 | – | 3.19e7 | 1.39e7 | inactive |
| GAPcenA (GTPase activating protein and centrosome-associated) | 1 | 2.64e7 | 4.39e7 | – | 1.23e7 | 1.81e7 | inactive |
| CG12708 | 1 | 3.41e7 | 3.62e7 | – | 1.70e7 | 1.74e7 | inactive |
| CG15278 | 1 | 3.36e7 | 2.12e7 | – | 1.58e7 | 1.04e7 | inactive |
| Jhbp4 (Juvenile hormone binding protein 4) | 1 | 3.43e7 | 5.37e7 | – | 1.74e7 | 6.58e7 | inactive |
| nAChRalpha2 (nicotinic Acetylcholine Receptor alpha2) | 1 | 3.65e7 | 2.62e7 | – | 1.73e7 | 1.30e7 | inactive |
| AstA-R2 (Allatostatin A receptor 2) | 1 | 3.70e7 | 5.41e7 | – | 1.91e7 | 2.31e7 | inactive |
| srp (serpent) | 1 | 2.52e7 | 3.66e7 | – | 1.18e7 | 1.65e7 | inactive |
| srp (serpent) | 2 | 3.15e7 | 7.36e7 | – | 1.89e7 | 7.75e7 | inactive |
| srp (serpent) | 3 | 3.55e7 | 3.60e7 | – | 1.77e7 | 1.54e7 | inactive |
| CG43182 | 1 | 4.23e7 | 3.89e7 | – | 2.35e7 | 1.76e7 | inactive |
| CG18549 | 1 | 4.29e7 | 3.93e7 | – | 2.01e7 | 2.00e7 | inactive |
